Some of the results follow. Further columns of the screen follow, without active or inactive calls. Compounds called inactive in the main read-out are mostly missing here. Potencies come from curve fits of mixed quality, noted in brackets.
Experiment: qHTS Assay to Find Inhibitors of Chronic Active B-Cell Receptor Signaling
Details: ABC-DLBCL IkBa-CBG/CBR reporter, luminescence ratio (green luciferase fused to IkBa over red control in TMD8 lymphoma cells), 4 h
Procedure, shortened: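 Concentration-response series (up to 46 uM) were applied to TMD8 dual-reporter cells for 4 h at 37C with doxycycline. Green/red ratio, after filter-overlap correction, defined %Activity; red signal alone was normalised to basal cells and zero luminescence.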

[1] = measured here: CBR red luminescence, cell number
[2] = measured here: IkBa-CBG green luminescence

SMILES	AC50 [1]	AC50 [2]
Cc1sc2ncnc(SCC(=O)NC(=O)NCc3ccco3)c2c1C	35.5 µM [rising, single point]	–
O=C(Nc1ccccc1C(=O)Nc1ccc2c(c1)OCO2)c1cccs1	9.2 µM [falling, partial curve, poor fit]	–
Cc1cc(C)n2nc(CC(=O)NC3CCCCCCC3)nc2n1	28.2 µM [falling, single point]	–
CC(=O)/C(=N/Nc1cccc(Cl)c1)N1CCOCC1	29.1 µM [falling, single point]	–
O=C(N/N=C/c1ccccn1)c1ccc(NC(=O)c2ccccc2Cl)cc1	11.2 µM [falling, partial curve, poor fit]	12.6 µM [rising, partial curve, poor fit]
CCc1nc2ccc(C(=O)Nc3cccc(C(C)=O)c3)cc2nc1CC	–	3.66 µM [rising, full curve, poor fit]
CCOC(=O)c1cn2nc(Oc3cccc(C(F)(F)F)c3)ccc2n1	14.1 µM [falling, single point]	–
O=C(O)c1ccc(/C=N/NC(=O)c2ccc(Br)cc2)cc1	29.1 µM [falling, single point]	–
CC(C)[C@H](NC(=O)c1ccccc1)C(=O)OCC(=O)/C=C1/N(C)c2ccccc2C1(C)C	32.6 µM [falling, single point]	–
COc1ccc(C2OC(=O)CC2C(=O)NCc2ccc(F)cc2)cc1OC (stereo not drawn)	35.5 µM [falling, single point]	–
COc1ccccc1NC(=O)CSc1nnc(Cc2cccn2C)n1-c1ccc(F)cc1	16.4 µM [falling, single point]	–
Cc1ccc(C(=O)/C=C\C(=O)c2ccc(C)cc2)cc1	10.3 µM [falling, partial curve, poor fit]	–
CC(/C=N/N1CCN(c2ccccn2)CC1)=C\c1ccccc1	8.2 µM [rising, partial curve, poor fit]	–
COc1cccc(N2C(=O)[C@H]3C(C(=O)c4cnccn4)=NN[C@H]3C2=O)c1	1.26 µM [falling, full curve, poor fit]	–
COc1ccc(-c2cccc(-c3cc(=O)oc4cc(OC)c(OC)c(OC)c34)c2)cc1	11.6 µM [rising, partial curve, poor fit]	–
Cc1ccc(SCc2nc3ccccc3n2CC(=O)Nc2ccccc2)cc1	7.94 µM [falling, partial curve]	–
Cc1cccc(C)c1OCC(=O)Nc1ccc(N2CCOCC2)cc1	15.8 µM [rising, single point]	–

4 entries already listed, arranged by count of non-hydrogen atoms, smallest number first.
SMILES	AC50 [1]	AC50 [2]
Cc1cc(C)n2nc(CC(=O)NC3CCCCCCC3)nc2n1	28.2 µM [falling, single point]	–
Cc1cccc(C)c1OCC(=O)Nc1ccc(N2CCOCC2)cc1	15.8 µM [rising, single point]	–
COc1ccc(C2OC(=O)CC2C(=O)NCc2ccc(F)cc2)cc1OC (stereo not drawn)	35.5 µM [falling, single point]	–
COc1ccc(-c2cccc(-c3cc(=O)oc4cc(OC)c(OC)c(OC)c34)c2)cc1	11.6 µM [rising, partial curve, poor fit]	–

— PubChem BioAssay AID493014 (National Center for Advancing Translational Sciences (NCATS), 2011)
